{"sequences": {"note": "Amino acid sequences for entries named in this document (tags omitted). A change or cut given only in a name is not applied to a line headed by its entry.", "UniProt Q9UNF0": "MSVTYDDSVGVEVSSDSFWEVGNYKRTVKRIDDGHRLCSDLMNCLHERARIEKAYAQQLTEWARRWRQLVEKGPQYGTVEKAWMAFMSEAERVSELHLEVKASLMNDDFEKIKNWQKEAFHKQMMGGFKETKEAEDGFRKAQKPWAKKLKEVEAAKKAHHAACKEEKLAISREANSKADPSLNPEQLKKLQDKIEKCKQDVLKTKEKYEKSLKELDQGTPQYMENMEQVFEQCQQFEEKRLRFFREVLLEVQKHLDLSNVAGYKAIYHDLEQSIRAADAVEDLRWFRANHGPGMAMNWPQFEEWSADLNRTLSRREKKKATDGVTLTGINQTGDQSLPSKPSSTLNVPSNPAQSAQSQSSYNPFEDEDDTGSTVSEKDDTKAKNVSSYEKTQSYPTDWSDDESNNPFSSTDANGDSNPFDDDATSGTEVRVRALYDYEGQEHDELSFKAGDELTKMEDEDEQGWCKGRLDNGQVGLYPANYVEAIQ", "UniProt Q99732": "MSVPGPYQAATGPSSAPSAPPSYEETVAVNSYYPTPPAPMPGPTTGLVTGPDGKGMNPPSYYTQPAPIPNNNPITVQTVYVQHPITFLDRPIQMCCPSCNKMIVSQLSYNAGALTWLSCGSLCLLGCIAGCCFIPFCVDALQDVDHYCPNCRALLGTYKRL"}, "source": "paper PMC8353527", "assay_in_all_cases": "co-IP; HEK293T cells co-transfected; post-nuclear lysate in 10 mM Tris-HCl pH 7.4, 140 mM NaCl, 0.1% Triton X-100 incubated overnight with GFP-Trap resin, washed three times, western blot", "key": {"[1]": {"biological_target": "T1, CDIP1 (cell death involved p53 target 1) (human) (UniProt Q9H305)", "T1 sequence": "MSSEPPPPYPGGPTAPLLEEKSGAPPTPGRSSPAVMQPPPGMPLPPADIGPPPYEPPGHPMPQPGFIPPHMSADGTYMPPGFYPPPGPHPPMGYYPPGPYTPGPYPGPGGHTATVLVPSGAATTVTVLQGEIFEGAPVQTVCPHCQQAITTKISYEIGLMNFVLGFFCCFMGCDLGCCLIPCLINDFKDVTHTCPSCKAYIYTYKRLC"}, "GFP–EHD1": {"biological_target": "T2, GFP–EHD1 (UniProt Q9H4M9)", "T2 sequence": "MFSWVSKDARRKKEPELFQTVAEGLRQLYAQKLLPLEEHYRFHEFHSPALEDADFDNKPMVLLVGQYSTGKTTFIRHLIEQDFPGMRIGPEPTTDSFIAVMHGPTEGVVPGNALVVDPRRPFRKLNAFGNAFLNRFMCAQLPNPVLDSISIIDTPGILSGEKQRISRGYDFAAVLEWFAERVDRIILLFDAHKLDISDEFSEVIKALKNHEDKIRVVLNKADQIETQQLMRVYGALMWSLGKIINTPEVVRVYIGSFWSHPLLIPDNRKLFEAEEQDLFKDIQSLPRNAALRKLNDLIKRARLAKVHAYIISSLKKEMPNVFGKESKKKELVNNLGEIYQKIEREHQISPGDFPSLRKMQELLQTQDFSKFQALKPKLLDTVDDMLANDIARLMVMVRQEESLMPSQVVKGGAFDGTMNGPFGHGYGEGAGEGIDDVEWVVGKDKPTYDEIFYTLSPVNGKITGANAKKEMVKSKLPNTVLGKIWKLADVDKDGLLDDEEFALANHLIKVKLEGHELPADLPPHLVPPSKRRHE"}, "GFP–Pacsin2": {"biological_target": "GFP–Pacsin2 (UniProt Q9UNF0)"}}, "note": "These are yes or no findings as the source states them, for the method shown. In cells and extracts the contact can be indirect. Some entries that bind do so weakly or less than the wild type. For part of these data: Tags and fused reporters may be left off the sequences shown.", "data": [{"substance": "LITAF (construct of the co-immunoprecipitation with CDIP1, Fig. S5A) (from UniProt Q99732 1-161)", "values": [{"measurement": "binding", "setting": "[1]", "value": "binds"}]}, {"substance": "Myc-LITAF (LPS-induced TNF-activating factor) (from UniProt Q99732 1-161)", "values": [{"measurement": "binding", "setting": "GFP–EHD1", "value": "binds"}]}, {"substance": "V5–LITAF (LPS-induced TNF-activating factor) (from UniProt Q99732 1-161)", "values": [{"measurement": "binding", "setting": "GFP–Pacsin2", "value": "binds"}]}]}
